# According to PubChem BioAssay AID1487 (National Center for Advancing Translational Sciences (NCATS), 2009):
# This is one part of the list. Further columns of the screen follow, without active or inactive calls. Compounds called inactive in the main read-out are mostly missing here. The note in brackets gives the kind of curve behind each potency; many fits are weak.
# Assay: qHTS Assay for Modulators of Lamin A Splicing
# Conditions: HeLa LMNA splicing GFP/RFP minigene ratio, 48 h
# Outline: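 S3 HeLa stable clones carrying a lamin A-EGFP splicing minigene plus DsRed2 were seeded at 600 cells/well in Opti-MEM with 2% FBS, pin-dosed and incubated 48 h at 37°C. Acumen cytometry (488 nm) gave the GFP/RFP total-intensity ratio.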
# [1] = measured here: GFP splicing reporter channel
# [2] = measured here: RFP viability control channel
SMILES,AC50 [1],AC50 [2]
CC1CCc2c(sc3nnn(CC(=O)Nc4ccc(Cl)cc4)c(=O)c23)C1 (centres undefined),"0.708 µM [rising, full curve]",–
CCCc1ccc(/C=C2\C(=O)c3ccccc3C(O)=C2C(=O)OCC)cc1,–,"14.1 µM [rising, partial curve, poor fit]"
COC(=O)c1sccc1S(=O)(=O)N(CC(=O)NCc1ccc(F)cc1)c1ccc(Cl)cc1,"0.794 µM [rising, full curve, poor fit]","15.8 µM [rising, partial curve]"
CCOc1ccc(OCC)c(NC(=O)Nc2ccc3c(c2)N(C)C(=O)CS3)c1,–,"15.8 µM [rising, partial curve, poor fit]"
CCCCN(C(=O)CNC(=O)c1cccs1)C(C(=O)NC1CCCC1)c1ccncc1 (centres undefined),"31.6 µM [rising, single point]","31.6 µM [rising, single point]"
O=C(CSc1ccsc1[N+](=O)[O-])N1CCN(c2ccccc2)CC1,–,"12.6 µM [rising, single point]"
O=C(Nc1ccc(NC(=O)c2cccs2)c(Cl)c1)c1ccco1,"10 µM [falling, partial curve, poor fit]","8.91 µM [falling, partial curve]"
Nc1c(CC(=O)O)cccc1C(=O)c1ccc(Br)cc1,"2.82 µM [falling, partial curve]","17.8 µM [rising, partial curve, poor fit]"
N#C/C(=C\C1CC2C=CC1C2)c1nc2ccccc2[nH]1 (centres undefined),–,"22.4 µM [rising, single point]"
Cc1ccccc1NC(=S)N=Nc1c(O)n(C)c2ccc(S(=O)(=O)N3CCOCC3)cc12,"7.94 µM [rising, partial curve]","7.94 µM [rising, partial curve]"
COc1ccccc1NC(=O)CSC1=Nc2ccccc2C2=NC(CC(=O)NCc3cccs3)C(=O)N12 (centres undefined),"0.00398 µM [falling, full curve, poor fit]",–
CCOc1ccc(NC(=S)NC(=O)/C=C/c2ccc(C)cc2)c([N+](=O)[O-])c1,"35.5 µM [falling, single point]","17.8 µM [falling, partial curve]"
Cc1ccccc1NC(=O)CSc1nnc(-c2cccs2)o1,"35.5 µM [falling, partial curve, poor fit]",–
COc1ccc(CCN(C)C(=O)CSc2ncnc3sccc23)cc1OC,"17.8 µM [rising, partial curve, poor fit]","0.0631 µM [rising, full curve, poor fit]"
OC(CC1CC12c1ccccc1-c1ncccc12)(c1ccccc1)c1ccccc1 (centres undefined),"35.5 µM [rising, single point]","35.5 µM [rising, single point]"
CS(=O)(=O)c1nc(-c2ccccc2)cc(C(F)(F)F)n1,"5.62 µM [falling, single point]","3.98 µM [falling, full curve]"
CCCc1c(C(=O)Nc2cc(C(C)(C)C)on2)cnn1-c1ccccc1,–,"0.0891 µM [falling, full curve, poor fit]"

# Part of the list above, as tab-separated lines.
SMILES	AC50 [1]	AC50 [2]
CCOc1ccc(OCC)c(NC(=O)Nc2ccc3c(c2)N(C)C(=O)CS3)c1	–	15.8 µM [rising, partial curve, poor fit]
CCCCN(C(=O)CNC(=O)c1cccs1)C(C(=O)NC1CCCC1)c1ccncc1 (centres undefined)	31.6 µM [rising, single point]	31.6 µM [rising, single point]

# Further records:

SMILES,AC50 [1],AC50 [2]
C=CCn1c(SCc2nc3sc(C(=O)O)c(C)c3c(=O)[nH]2)nnc1-c1ccc(C(C)(C)C)cc1,"0.0282 µM [rising, full curve]",–
Cc1cc(F)ccc1NC(=O)Cn1c(=O)ccc2cc(S(=O)(=O)N3CCC(C)CC3)ccc21,"14.1 µM [falling, partial curve]","22.4 µM [falling, partial curve, poor fit]"
COC(=O)/C(=C\C(=O)c1ccc([N+](=O)[O-])cc1)Nc1ccc(OC)cc1,–,"35.5 µM [falling, single point]"
CCOc1ccc(NC(=O)N2CC=C(n3c(=O)[nH]c4ccccc43)CC2)cc1,"20 µM [falling, partial curve, poor fit]","1 µM [falling, full curve, poor fit]"
Cc1oc2c(C)c(O)ccc2c(=O)c1-c1cnn(-c2ccccc2)c1,"17.8 µM [falling, single point]","35.5 µM [falling, single point]"
O=C(Nc1ccc2c(c1)OCO2)C1CCCN(c2nc3ccccc3s2)C1 (centres undefined),"4.47 µM [rising, full curve]","11.2 µM [rising, partial curve]"
O=C(/C=C/c1ccccc1)OCCCN=C1NS(=O)(=O)c2ccccc21,"14.1 µM [falling, single point]","15.8 µM [falling, single point]"
O=C(CSc1ncnc2ccccc12)Nc1cc(S(=O)(=O)N2CCCCC2)ccc1Cl,"4.47 µM [rising, partial curve]","17.8 µM [rising, partial curve]"
O=S1(=O)C=CC(Nc2cccc(Cl)c2)C1 (centres undefined),–,"10 µM [rising, partial curve]"
O=C(N1CCN(c2cccc(Cl)c2)CC1)C1(S(=O)(=O)c2ccc(Cl)cc2)CC1,–,"12.6 µM [rising, single point]"
CCCOc1ccc(Br)cc1CSC(=N)N,–,"11.2 µM [rising, partial curve]"
CCOC(=O)c1cn(Cc2ccc(Cl)cc2Cl)c2cc(C)nn2c1=O,–,"15.8 µM [rising, partial curve, poor fit]"
O=C(CCN1C(=O)C2C3CCC(C3)C2C1=O)Nc1ccc(Br)cc1 (centres undefined),"35.5 µM [rising, single point]",–
O=C(CSCc1c(Cl)cccc1Cl)Nc1ccccc1-c1ccccc1,–,"20 µM [rising, single point]"
Cc1ccc(S(=O)(=O)Nc2cc(C(F)(F)F)ccc2N2CCOCC2)c(C)c1,–,"28.2 µM [rising, single point]"
C=C(C)c1nc(N)nc(N)n1,–,"20 µM [rising, single point]"
O=C(CSc1nc(-c2ccc(Cl)cc2)cs1)Nc1cccc([N+](=O)[O-])c1,–,"6.31 µM [rising, full curve]"
